Read-outs that look alike come from different tables or passages of the source. At least one compound was matched to its structure with a doubt left.
Assays:
Type in all cases: in vivo
[1] = tested on: inflammatory pain in mice induced by intraplantar injection of carrageenan
[2] = tested on: post-surgical pain in rats
[3] = tested on: post-surgical pain in rats; conditions: 4 hours after the incision, IT acetaminophen 200 μg, chloroprocaine 3% 20 μL
Protocol: The efficacy of the acetaminophen supersaturated solution administered by spinal administration (IT) was tested with explorative experiments in a model of post-surgical pain in rats in combination with a solution of chloroprocaine 3%.
The post-surgical pain was induced by means of incision and subsequent suture of the subplantar region of the rear left paw, as described by Timothy J. Brennan (1996).
The pain threshold following mechanical stimulation (expressed in grams) was measured 4 hours after the incision. Complete reduction of the anaesthetic effect of the spinal chloroprocaine is expected within this period of time. The reduction of the pain threshold is considered to be an indicator of pain and hyperalgesia of the zone affected by surgical intervention.

## CC(=O)Nc1ccc(O)cc1 [Acetaminophen, acetyl-p-aminophenol]
[1]; 10 μg per mouse IT, compared to control mice
  reduction of inflammatory pain: not effective
[1]; 100 μg per mouse IT
  reduction of inflammatory pain: effective in reducing inflammatory pain
[2]; 200 μg IT, rats
  cumulative analgesia over 24 hours: significant cumulative analgesia over 24 hours
[2]; 200 μg per rat IT, immediately before the surgical procedure
  reduction of post-surgical pain: effective in reducing post-surgical pain
[3]
  effect on pain threshold / post-surgical pain: effective in reducing post-surgical pain
